# Part of at least one peptide drawing is inferred or uncertain, most often the ends.
# Tested on: Meth A cells (murine sarcoma cell line)
# Experiment: Cytotoxicity on Meth A cells, MTT method
# Settings: Meth A cells 1×10^4/ml, 4 h incubation (FIG. 2)
# Method: Peptide solutions (0.1 ml) were added and the plates incubated at 37° C. for 30 minutes, 4 hours or 24 hours. The cytotoxicity was measured using the MTT method (Mosmann et al., J. Immunol. (1986) 136, 2348-2357).
# Cells in the growth phase were harvested and washed in fresh medium and injected subcutaneously into the abdominal region of the mice.
# The cytotoxic effect of the peptides on different murine and human tumor cells were measured using the MTT method (Mosmann et al., J. Immunol. (1986) 136, 2348-2357).
# MTT is a soluble tetrazolium salt yielding a yellow solution when prepared in media or salt solutions lacking phenol red. Dissolved MTT is converted to an insoluble purple formazan by cleavage of the tetrazolium ring by dehydrogenase enzymes. This water insoluble formazan can be solubilized using isopropanol or other solvents and the dissolved material is measured spectrophotometrically. The absorbance was measured as a function of concentration of converted dye.
# Cells were maintained in […] medium containing 10% FBS, 1% L-glutamine and 0.1% penicillin and streptomycin. Cells to be used in the assay were grown to confluency, trypsinated and split to single cell suspension, counted and centrifuged at 1500 rpm for 10 min. […] The plate was placed on a shaker for 1 h and read spectrophotometrically at 590 nm in a microtiterplate reader using the Softmaxâ program.
smiles,measurement,value
"CC[C@H](C)[C@H](NC(=O)[C@H](CO)NC(=O)[C@@H]1CCCN1C(=O)[C@H](C)NC(=O)CNC(=O)[C@H](CC(C)C)NC(=O)[C@H](CCCCN)NC(=O)[C@H](CCCCN)NC(=O)[C@H](CCSC)NC(=O)[C@H](CCCNC(=N)N)NC(=O)[C@H](Cc1c[nH]c2ccccc12)NC(=O)[C@H](CCC(N)=O)NC(=O)[C@H](Cc1c[nH]c2ccccc12)NC(=O)[C@H](CCCNC(=N)N)NC(=O)[C@H](CCCNC(=N)N)NC(=O)[C@H](CSCNC(C)=O)NC(=O)[C@H](CCCCN)NC(=O)[C@@H](N)Cc1ccccc1)C(=O)N[C@H](C(=O)N[C@@H](CSCNC(C)=O)C(=O)N[C@H](C(=O)N[C@@H](CCCNC(=N)N)C(=O)N[C@@H](CCCNC(=N)N)C(=O)N[C@@H](C)C(=O)N[C@@H](Cc1ccccc1)C(=O)O)C(C)C)[C@@H](C)O [LFB (17-41), reference compound]",concentration at which Meth A cells were effectively killed,higher than 0.6 mg/ml

# From patent US9109048B2, “Inhibition of tumor growth” (priority 1998, dated 2015)
